Patent US6942981
These are yes or no findings as the source states them, for the method shown. Some binding calls cover weakened binding; strength is not graded here. For some assays here: Tags and fused reporters may be left off the sequences shown.

Tests used:
[1] = biological target: T1, GST-AF6 PDZ domain fusion protein (Homo sapiens (Human)) (UniProt P55196); experiment: A/G assays (Table 2)
T1 sequence: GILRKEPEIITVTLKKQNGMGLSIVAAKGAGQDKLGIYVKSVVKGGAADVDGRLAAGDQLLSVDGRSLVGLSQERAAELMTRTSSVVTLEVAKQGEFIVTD

[2] = biological target: T2, GST-41.8 kD (hypothetical 41.8 kD protein) PDZ domain fusion protein (Mus musculus (Mouse)) (UniProt Q9EQZ7); experiment: A/G assays (Table 2)
T2 sequence: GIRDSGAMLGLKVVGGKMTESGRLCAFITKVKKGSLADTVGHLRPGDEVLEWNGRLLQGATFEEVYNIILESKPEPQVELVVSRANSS

[3] = biological target: T3, GST-NeDLG PDZ domains 1-2 fusion protein (Mus musculus (Mouse)) (UniProt P70175); experiment: A/G assays (Table 2)
T3 sequence: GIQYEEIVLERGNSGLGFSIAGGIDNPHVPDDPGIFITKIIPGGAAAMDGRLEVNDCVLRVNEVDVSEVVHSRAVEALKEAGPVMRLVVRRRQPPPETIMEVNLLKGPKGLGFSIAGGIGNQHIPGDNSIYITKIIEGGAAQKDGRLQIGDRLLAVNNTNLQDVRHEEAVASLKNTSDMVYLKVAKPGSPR

[4] = biological target: GST-PSD95 PDZ domains 1-3 fusion protein (human); experiment: A/G assays (Table 2)
[5] = biological target: T1, GST-AF6 PDZ domain fusion protein (Homo sapiens (Human)); experiment: A assay
[6] = biological target: T2, GST-41.8 kD (hypothetical 41.8 kD protein) PDZ domain fusion protein (Mus musculus (Mouse)); experiment: A assay
[7] = biological target: T3, GST-NeDLG PDZ domains 1-2 fusion protein (Mus musculus (Mouse)); experiment: A assay
[8] = biological target: GST-PSD95 PDZ domains 1-3 fusion protein (human); experiment: A assay

Measured: binding

CAISGTSSDRGYGSPRYAEV (biotin at the amino-terminus) [CLASP-4 C-terminal peptide AA3L-V]
binds: all assays above
